# From article PMC6092318, “Keap1–MCM3 interaction is a potential coordinator of molecular machineries of antioxidant response and genomic DNA replication in metazoa” (Scientific Reports, 2018)
# These are yes or no findings as the source states them, for the method shown. In cells and extracts the contact can be indirect. A yes stands for co-enrichment or nearness to the bait. Other partners may have been found. Where a sequence is shown, tags or fusion partners need not be part of it.
# Biological target: T1, FLAG-MCM3 (mouse MCM3 expressed in CHO-EBNALT85 cells) (mouse) (UniProt P25206)
# T1 sequence: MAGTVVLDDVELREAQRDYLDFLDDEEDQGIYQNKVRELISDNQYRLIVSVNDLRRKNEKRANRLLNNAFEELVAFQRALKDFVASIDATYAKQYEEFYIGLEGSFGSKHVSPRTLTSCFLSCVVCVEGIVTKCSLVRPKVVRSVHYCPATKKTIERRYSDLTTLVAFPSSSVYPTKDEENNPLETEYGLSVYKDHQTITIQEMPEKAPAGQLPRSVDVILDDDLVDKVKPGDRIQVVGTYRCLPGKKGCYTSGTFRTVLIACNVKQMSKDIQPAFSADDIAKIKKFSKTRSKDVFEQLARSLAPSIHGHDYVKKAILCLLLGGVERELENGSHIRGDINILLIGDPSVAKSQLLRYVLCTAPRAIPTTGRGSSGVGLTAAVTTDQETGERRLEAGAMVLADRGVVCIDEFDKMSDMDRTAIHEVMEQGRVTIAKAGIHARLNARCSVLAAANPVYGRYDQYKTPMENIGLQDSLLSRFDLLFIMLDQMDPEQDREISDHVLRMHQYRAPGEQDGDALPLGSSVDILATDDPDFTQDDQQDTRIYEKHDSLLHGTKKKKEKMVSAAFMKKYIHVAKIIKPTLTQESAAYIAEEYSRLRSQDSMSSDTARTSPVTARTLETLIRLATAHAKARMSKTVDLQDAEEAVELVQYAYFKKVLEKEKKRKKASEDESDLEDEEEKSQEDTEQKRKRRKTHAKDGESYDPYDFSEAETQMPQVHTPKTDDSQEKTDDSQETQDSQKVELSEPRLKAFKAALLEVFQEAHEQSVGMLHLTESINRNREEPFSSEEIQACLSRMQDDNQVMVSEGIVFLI
# Assay: affinity purification with mass spectrometry; anti-FLAG M2 beads on extracts of FLAG-MCM3 expressing CHOEBNALT85 cells, 150 mM KCl, pH 7.8, 4 °C, FLAG peptide elution, Superdex 200 fractions analysed by nano-LC/MS/MS
row,Substance,binding
1,"Keap1 (endogenous, CHO cells) (Chinese hamster (endogenous in CHO))",binds
2,"MCM-BP (endogenous, CHO cells) (Chinese hamster (endogenous in CHO))",binds
